From paper PMC4226561
No constants are given. Whether binding was seen depends on the method and setting. In cells and extracts the contact can be indirect. Some binding calls cover weakened binding; strength is not graded here. Sequences can lack the tags named with a protein.

T1: CESA3, full length, split-YFP (BiFC) fusion (Arabidopsis thaliana) (UniProt Q941L0)
T1 sequence: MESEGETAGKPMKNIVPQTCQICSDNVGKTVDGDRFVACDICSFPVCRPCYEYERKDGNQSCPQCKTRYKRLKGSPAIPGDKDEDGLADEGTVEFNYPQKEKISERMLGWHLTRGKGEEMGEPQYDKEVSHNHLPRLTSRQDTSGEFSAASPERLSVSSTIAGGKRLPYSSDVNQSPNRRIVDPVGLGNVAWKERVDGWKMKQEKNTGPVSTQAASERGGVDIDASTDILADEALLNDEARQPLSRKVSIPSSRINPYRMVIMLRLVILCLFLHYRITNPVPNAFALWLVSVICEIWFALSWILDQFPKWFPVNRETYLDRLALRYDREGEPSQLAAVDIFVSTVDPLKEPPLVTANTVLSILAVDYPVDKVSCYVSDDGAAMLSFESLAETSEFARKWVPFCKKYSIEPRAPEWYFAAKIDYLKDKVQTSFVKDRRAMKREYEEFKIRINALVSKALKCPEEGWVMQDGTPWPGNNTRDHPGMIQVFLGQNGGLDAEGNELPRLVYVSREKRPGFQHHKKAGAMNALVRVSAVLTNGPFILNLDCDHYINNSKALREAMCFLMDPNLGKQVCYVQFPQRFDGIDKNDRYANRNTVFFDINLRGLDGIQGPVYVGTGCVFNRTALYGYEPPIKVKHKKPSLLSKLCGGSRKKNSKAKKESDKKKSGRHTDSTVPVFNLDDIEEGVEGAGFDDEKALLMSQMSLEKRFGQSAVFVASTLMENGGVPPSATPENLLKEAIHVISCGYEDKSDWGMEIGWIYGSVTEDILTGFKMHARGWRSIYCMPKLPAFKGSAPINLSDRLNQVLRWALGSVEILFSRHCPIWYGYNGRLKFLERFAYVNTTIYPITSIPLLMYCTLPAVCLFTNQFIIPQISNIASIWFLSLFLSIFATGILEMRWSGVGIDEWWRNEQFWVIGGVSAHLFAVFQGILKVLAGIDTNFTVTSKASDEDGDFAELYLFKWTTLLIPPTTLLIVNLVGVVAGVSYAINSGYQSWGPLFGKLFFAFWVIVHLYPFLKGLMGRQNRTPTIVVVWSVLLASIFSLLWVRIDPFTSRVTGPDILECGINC

T2: CESA8, full length, split-YFP (BiFC) fusion (Arabidopsis thaliana) (UniProt Q8LPK5)
T2 sequence: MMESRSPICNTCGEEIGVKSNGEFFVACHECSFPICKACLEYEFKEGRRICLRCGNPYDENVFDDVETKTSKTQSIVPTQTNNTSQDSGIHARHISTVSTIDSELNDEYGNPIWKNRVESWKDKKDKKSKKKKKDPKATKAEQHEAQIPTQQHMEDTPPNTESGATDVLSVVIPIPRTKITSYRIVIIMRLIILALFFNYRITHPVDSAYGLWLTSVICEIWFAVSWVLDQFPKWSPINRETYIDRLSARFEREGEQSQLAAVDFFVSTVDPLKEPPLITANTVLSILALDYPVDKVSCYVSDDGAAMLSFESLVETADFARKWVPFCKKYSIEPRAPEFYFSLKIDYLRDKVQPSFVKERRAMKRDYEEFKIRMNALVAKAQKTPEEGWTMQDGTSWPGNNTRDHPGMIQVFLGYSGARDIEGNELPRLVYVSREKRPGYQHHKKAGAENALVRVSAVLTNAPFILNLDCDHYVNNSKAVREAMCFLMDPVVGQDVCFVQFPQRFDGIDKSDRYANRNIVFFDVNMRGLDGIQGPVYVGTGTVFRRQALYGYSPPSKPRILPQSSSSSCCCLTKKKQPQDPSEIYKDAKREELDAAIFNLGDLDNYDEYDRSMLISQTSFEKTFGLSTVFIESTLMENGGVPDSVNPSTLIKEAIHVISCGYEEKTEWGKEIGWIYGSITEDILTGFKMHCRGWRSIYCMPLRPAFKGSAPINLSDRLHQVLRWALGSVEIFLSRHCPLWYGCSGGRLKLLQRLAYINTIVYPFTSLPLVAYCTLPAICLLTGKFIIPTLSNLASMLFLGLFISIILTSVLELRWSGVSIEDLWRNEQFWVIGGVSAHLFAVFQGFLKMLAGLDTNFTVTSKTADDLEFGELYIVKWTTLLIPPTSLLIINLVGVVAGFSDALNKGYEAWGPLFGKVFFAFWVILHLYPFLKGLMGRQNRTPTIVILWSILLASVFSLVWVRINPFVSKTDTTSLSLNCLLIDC


Tests used:
[1] = molecular target: T1, CESA3, full length, split-YFP (BiFC) fusion (Arabidopsis thaliana); test: split reporter; BiFC: Y/N and Y/C fragments of YFP each linked to the N-terminus of the proteins, transiently expressed in leaves of 3-week-old N. benthamiana; YFP fluorescence by confocal microscopy 3 days after infiltration
[2] = molecular target: T2, CESA8, full length, split-YFP (BiFC) fusion (Arabidopsis thaliana); test: as above

Row | Binder | binding [1] | binding [2]
1 | KOR1C (AA 70 to 621), split-YFP (BiFC) fusion (domain or fragment, UniProt Q38890 70-621) KIFVWTVGTLVAAALLAGFITLIVKTVPRHHPKTPPPDNYTIALHKALKFFNAQKSGKLPKHNNVSWRGNSGLQDGKGETGSFYKDLVGGYYDAGDAIKFNFPMAYAMTMLSWSVIEYSAKYEAAGELTHVKELIKWGTDYFLKTFNSTADSIDDLVSQVGSGNTDDGNTDPNDHYCWMRPEDMDYKRPVTTCNGGCSDLAAEMAAALASASIVFKDNKEYSKKLVHGAKVVYQFGRTRRGRYSAGTAESSKFYNSSMYWDEFIWGGAWMYYATGNVTYLNLITQPTMAKHAGAFWGGPYYGVFSWDNKLAGAQLLLSRLRLFLSPGYPYEEILRTFHNQTSIVMCSYLPIFNKFNRTNGGLIELNHGAPQPLQYSVNAAFLATLYSDYLDAADTPGWYCGPNFYSTSVLRDFARSQIDYILGKNPRKMSYVVGFGTKYPRHVHHRGASIPKNKVKYNCKGGWKWRDSKKPNPNTIEGAMVAGPDKRDGYRDVRMNYNYTEPTLAGNAGLVAALVALSGEEEATGKIDKNTIFSAVPPLFPTPPPPPAPWKP | binds | binds
2 | KOR1N (AA 1 to 94), split-YFP (BiFC) fusion (domain or fragment, UniProt Q38890 1-94) MYGRDPWGGPLEINTADSATDDDRSRNLNDLDRAALSRPLDETQQSWLLGPTEQKKKKYVDLGCIIVSRKIFVWTVGTLVAAALLAGFITLIVK | binds | binds

Other lines, results leading:

Row | binding [1] | binding [2] | Binder
3 | binds | binds | KIFVWTVGTLVAAALLAGFITLIVK (domain or fragment, UniProt Q38890 70-94) [KOR1TMD (AA 70 to 94), split-YFP (BiFC) fusion]
4 | binds | binds | KORRIGAN1 (KOR1), full length, split-YFP (BiFC) fusion (protein, UniProt Q38890 1-621) MYGRDPWGGPLEINTADSATDDDRSRNLNDLDRAALSRPLDETQQSWLLGPTEQKKKKYVDLGCIIVSRKIFVWTVGTLVAAALLAGFITLIVKTVPRHHPKTPPPDNYTIALHKALKFFNAQKSGKLPKHNNVSWRGNSGLQDGKGETGSFYKDLVGGYYDAGDAIKFNFPMAYAMTMLSWSVIEYSAKYEAAGELTHVKELIKWGTDYFLKTFNSTADSIDDLVSQVGSGNTDDGNTDPNDHYCWMRPEDMDYKRPVTTCNGGCSDLAAEMAAALASASIVFKDNKEYSKKLVHGAKVVYQFGRTRRGRYSAGTAESSKFYNSSMYWDEFIWGGAWMYYATGNVTYLNLITQPTMAKHAGAFWGGPYYGVFSWDNKLAGAQLLLSRLRLFLSPGYPYEEILRTFHNQTSIVMCSYLPIFNKFNRTNGGLIELNHGAPQPLQYSVNAAFLATLYSDYLDAADTPGWYCGPNFYSTSVLRDFARSQIDYILGKNPRKMSYVVGFGTKYPRHVHHRGASIPKNKVKYNCKGGWKWRDSKKPNPNTIEGAMVAGPDKRDGYRDVRMNYNYTEPTLAGNAGLVAALVALSGEEEATGKIDKNTIFSAVPPLFPTPPPPPAPWKP
